Hit rate of the full screen: of about 220,000 compounds, about 2,400 (1.1%) were called active. This list was built around the results that the source calls inconclusive (neither active nor inactive); the mix of calls is not that of the screen. Calls come from the whole dose curve; as a rule, active = well fitted inhibition curve with a large enough effect; inconclusive = small, poorly fitted or top-dose-only effect, or effect the other way; inactive = no such curve, though single readings can be large or run the other way. Where the call is inconclusive, the potency comes from a doubtful curve fit.
Assay: qHTS Multiplex Assay to Identify Dual Action Probes in a Cell Model of Huntington: Aggregate Formation (GFP); note: nearly all actives have a fitted effect of over 60% in size
Details: PC12 HttQ103-GFP aggregates, Acumen cytometry, 40 h; activity change, negative = inhibition: at 46.1 µM (top of the series) unless noted
How it was run: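 Compounds (qHTS titration) were added to PC12 cells expressing an ecdysone-driven HTT exon 1 Q103–GFP fusion after induction with 100 nM tebufenozide. Aggregate formation was measured as GFP objects in cell lysates.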
% is set by controls: 0 for no effect and ±100 for the full control effect; potency is the fitted concentration of half-maximal effect.

Question: With `Cn1c(=O)c2c(nc(CN3CCc4ccccc4C3)n2Cc2ccccc2)n(C)c1=O` as the compound, how does the Potency read?
Answer: inactive

Question: Which Potency does the source give for `N#CC(C#N)=C1C=C2C=C(N3CCCCC3)CCC2CC1` (configuration not stated) here?
Answer: active: 10 µM

Question: Which Potency does the source give for `N#CC1=C(N)OC2=C(C(=O)CC(c3ccco3)C2)C1c1ccc(OCc2c(F)cccc2Cl)cc1` (configuration not stated) here?
Answer: inconclusive: 35.5 µM [inhibitor, single point]

Question: Which Potency does the source give for `O=C(NN1C(=O)c2ccccc2C1=O)C1CC2CCC1C2` (configuration not stated) here?
Answer: inconclusive: 5.62 µM [inhibitor, single point]

Question: Which Potency does the source give for `CCN(CC)C(=O)C1CCCN(c2ccc([N+](=O)[O-])cc2/C=N/NC(=O)c2ccccc2)C1` (configuration not stated) here?
Answer: inconclusive: 31.6 µM [activator, single point]

Question: With `CCN(CC)C(=O)C1CCN(S(=O)(=O)c2ccc3oc4ccccc4c3c2)CC1` as the compound, how does the Potency read?
Answer: inconclusive: 20 µM [inhibitor, single point]

Question: Which Potency does the source give for `CCC(=O)N1c2ccccc2[C@@H](N(C(C)=O)c2ccccc2)C[C@H]1C` here?
Answer: inconclusive: 0.355 µM [activator, partial curve]

Question: Which Potency does the source give for `Cn1nccc1C(=O)c1ccc(Cl)cc1` here?
Answer: inconclusive: 5.62 µM [activator, single point]

Question: Which Potency does the source give for `COc1cc(NC(=O)C2CCCO2)c(OC)cc1NC(=O)c1ccccc1` (configuration not stated) here?
Answer: inconclusive: 0.562 µM [inhibitor, full curve, poor fit]

Question: With `COc1ccccc1-c1csc(NC(=O)c2ccc(N3C(=O)CCC3=O)cc2)n1` as the compound, how does the Potency read?
Answer: inactive

Question: For `Oc1ccc(N=Nc2cccc(C(F)(F)F)c2)cc1C=Nc1ccc(N2CCOCC2)cc1`, which Potency is on record?
Answer: inactive

Question: Which Potency does the source give for `Clc1ccc(-c2ccc(/C=N/Nc3nncc(-c4ccccc4)n3)o2)cc1` here?
Answer: inactive

Question: For `O=C(NNS(=O)(=O)c1ccc(Cl)cc1)c1cnn(-c2ccccc2)c1-n1cccc1`, which Potency is on record?
Answer: inactive

Question: For `CCOc1ccc(C(=O)Nc2nc3ccccc3[nH]2)cc1OCC`, which Potency is on record?
Answer: active: 12.6 µM

Question: With `c1ccc(-c2cn(-c3ccccc3)c3[n+]2CCS3)cc1` as the compound, how does the Potency read?
Answer: inconclusive: 12.6 µM [inhibitor, partial curve]

Question: With `CCN1C(=O)/C(=C/c2nc3ccccc3c(=O)n2-c2ccc(C)cc2)c2ccccc21` as the compound, how does the Potency read?
Answer: inconclusive: 5.62 µM [inhibitor, single point]

Question: Which Potency does the source give for `COc1ccc(OCc2nnc3n2N=C(c2ccc(C)cc2)CS3)cc1` here?
Answer: inactive

Question: For `COc1cc(NS(=O)(=O)c2ccc(OC)c(C)c2C)c(OC)cc1Cl`, which Potency is on record?
Answer: inactive

Question: Which Potency does the source give for `CCN(CC)C(=O)c1ccc(Nc2nnc(C)c3ccccc23)cc1` here?
Answer: inactive

Question: Which Potency does the source give for `O=C(CSc1nc2ncccc2[nH]1)Nc1ccc2c(c1)OCCO2` here?
Answer: inconclusive: 0.562 µM [inhibitor, full curve, poor fit]

Question: For `Cc1cc(F)c(F)c(C(=O)N2CCCCC2C)c1Cl` (configuration not stated), which Potency is on record?
Answer: inactive

Question: With `CN(C)c1nn(C(=O)Nc2ccc(Cl)cc2Cl)cc1-c1ccccc1` as the compound, how does the Potency read?
Answer: inconclusive: 0.562 µM [inhibitor, full curve, poor fit]

Question: Which Potency does the source give for `CCNS(=O)(=O)c1ccc(NC(=O)Nc2cccc(C(F)(F)F)c2)cc1` here?
Answer: inconclusive: 10 µM [inhibitor, partial curve]

Question: For `Cc1cc([N+](=O)[O-])nn1CC(=O)Nc1cccc2nonc12`, which Potency is on record?
Answer: inactive

Question: For `Cc1cc2c(C)nc(-c3ccccc3)nc2o1`, which Potency is on record?
Answer: inconclusive: 6.31 µM [activator, single point]

Question: Which Potency does the source give for `Cc1nn(-c2ccccc2)c2sc(C(=O)N3CCCCC3)cc12` here?
Answer: inactive

Question: For `c1cc2c(cc1-c1cnc3n1CCC3)OCCO2`, which Potency is on record?
Answer: active: 25.1 µM

Question: For `Cc1ccc(CNC(=O)c2ccc(Br)o2)cc1`, which Potency is on record?
Answer: inactive

Question: For `O=[N+]([O-])c1cnc(Sc2ccncn2)s1`, which Potency is on record?
Answer: inconclusive: 5.62 µM [inhibitor, single point]

Question: For `COC(=O)C1=C(C)N(CCC2=CCCCC2)C(=O)C1`, which Potency is on record?
Answer: inconclusive: 35.5 µM [inhibitor, single point]

Question: Which Potency does the source give for `CC1CCCCN1C(=O)CSc1nc2cc3c(cc2c(=O)n1Cc1ccc2c(c1)OCO2)OCO3` (configuration not stated) here?
Answer: inactive

Question: For `CN(C)c1ccc(-c2ccc([C@H]3[C@@H]4C=CCC[C@@]4(C)C(=O)N3Cc3ccccc3)c(F)c2)cc1`, which activity change, negative = inhibition is on record?
Answer: inactive: 17.4% [at 9.22 µM]

Question: With `COc1ccc(-c2csc(C3=C(O)CN(Cc4ccc(Cl)cc4)C3=N)n2)cc1OC` as the compound, how does the Potency read?
Answer: inconclusive: 0.631 µM [inhibitor, full curve]

Question: With `Nc1ncnc2c1ncn2C1OC(CO)C(O)C1O` (configuration not stated) as the compound, how does the Potency read?
Answer: inconclusive: 1.26 µM [activator, single point]

Question: With `Cc1cc(C)nc(Nc2n[nH]c(-c3ccc(C(C)(C)C)cc3)n2)n1` as the compound, how does the Potency read?
Answer: inconclusive: 35.5 µM [inhibitor, single point]

Question: For `N/C(=N\OC(=O)Cc1ccc(-c2ccccc2)cc1)c1cccnc1`, which Potency is on record?
Answer: inconclusive: 22.4 µM [inhibitor, single point]

Question: For `CCCCSc1nnc(-c2ccccc2N)c(=O)[nH]1`, which Potency is on record?
Answer: inconclusive: 35.5 µM [inhibitor, single point]

Question: For `COc1ccccc1-c1nc(C#N)c(N2CCN(c3cccc(Cl)c3)CC2)o1`, which Potency is on record?
Answer: inconclusive: 12.6 µM [activator, single point]

Question: Which activity change, negative = inhibition does the source give for `COc1ccc(NC(=O)N2CCN(c3ccc([N+](=O)[O-])cc3)CC2)cc1` here?
Answer: inactive: 6.77% [at 9.22 µM]

Question: Which Potency does the source give for `CCOC(=O)c1nnsc1Nc1ccc(C)c(C)c1` here?
Answer: inconclusive: 22.4 µM [inhibitor, single point]

Question: For `CCSc1nc2c(c(=O)n1Cc1ccccc1)SC(C)C2` (configuration not stated), which Potency is on record?
Answer: active: 28.2 µM

Question: For `N#Cc1c(NC(=O)CSc2ncnc3sccc23)oc(-c2ccco2)c1-c1ccco1`, which Potency is on record?
Answer: inactive

Question: Which Potency does the source give for `Cc1ccc2[nH]c3c(NCc4ccco4)ncnc3c2c1` here?
Answer: active: 11.2 µM

Question: For `C=CCCC(=O)Nc1nc(C)c(-c2csc(Nc3cc(OC)ccc3OC)n2)s1`, which Potency is on record?
Answer: active: 10 µM

Question: With `Cn1c(=O)c2cc(S(=O)(=O)Nc3ccc4c(c3)OCO4)ccc2n(C)c1=O` as the compound, how does the Potency read?
Answer: inconclusive: 12.6 µM [inhibitor, partial curve, poor fit]

Question: Which Potency does the source give for `C=CCNC(=S)N/N=C(\C)c1ccc(-n2ccnc2)cc1` here?
Answer: inconclusive: 5.62 µM [activator, single point]

Question: For `COc1cc(OC)cc(OCC(O)Cn2cnc3cc(C)c(C)cc32)c1` (configuration not stated), which Potency is on record?
Answer: inconclusive: 17.8 µM [inhibitor, single point]

Question: For `CCOC(=O)c1ccc(S(=O)(=O)N2CCN(C(=O)c3cc(=O)c4ccccc4o3)CC2)cc1`, which Potency is on record?
Answer: inconclusive: 15.8 µM [activator, partial curve]

Question: Which Potency does the source give for `CCCCCCSc1nc(O)c(C2OC(=O)c3c2ccc(OC)c3OC)c(=O)n1CC` (configuration not stated) here?
Answer: inconclusive: 14.1 µM [activator, partial curve]

Question: With `O=C(NNC(=O)[C@H]1CC=CC[C@H]1C(=O)O)c1ccc(Cl)cc1Cl` as the compound, how does the Potency read?
Answer: inactive

Question: With `COc1ccc(CN(CCC#N)C(=S)NC(=O)c2ccccc2)cc1` as the compound, how does the Potency read?
Answer: inactive

Question: With `Cc1cc(C(=O)COC(=O)c2ccc3c(c2)OCO3)c(C)n1Cc1cccs1` as the compound, how does the Potency read?
Answer: inconclusive: 0.447 µM [inhibitor, partial curve]

Question: Which Potency does the source give for `COc1cccc(C2=NCCc3cc4c(cc32)OCO4)c1OC` here?
Answer: inactive

Question: With `CCOC(=O)c1c(NC(C)=O)sc2c(OCC(O)CN(CC)CC)c(Br)ccc12` (configuration not stated) as the compound, how does the Potency read?
Answer: inconclusive: 35.5 µM [inhibitor, single point]

Question: Which Potency does the source give for `CC(CCc1ccccc1)NC(=O)c1cccs1` (configuration not stated) here?
Answer: inactive

Question: With `Cc1nc2sc3c(c2c2nnc(SCC(=O)NCc4ccco4)n12)CCCC3` as the compound, how does the Potency read?
Answer: inactive

Question: With `Cc1cc(C(=O)CSc2nnc(C3COc4ccccc4O3)n2C)c(C)n1-c1ccc(F)cc1` (configuration not stated) as the compound, how does the Potency read?
Answer: inconclusive: 35.5 µM [inhibitor, single point]

Question: Which Potency does the source give for `CCCCCCNc1c([N+](=O)[O-])c(=O)sc2ccccc12` here?
Answer: inconclusive: 17.8 µM [inhibitor, single point]

Question: With `CC(C)=CC(=O)NCCc1ccccc1` as the compound, how does the Potency read?
Answer: inactive

Question: With `COc1ccc(N=C2C(=Nc3ccc(OC)cc3)N(c3ccc(N(C)C)cc3)C(=S)N2c2ccc(OC)cc2)cc1` as the compound, how does the Potency read?
Answer: inconclusive: 0.398 µM [inhibitor, full curve, poor fit]

Question: With `CCN(c1cccc(C(F)(F)F)c1)S(=O)(=O)c1ccc2c(c1)CCN2C(C)=O` as the compound, how does the Potency read?
Answer: inconclusive: 10 µM [inhibitor, partial curve]

Question: With `O=C(NCc1ccco1)C(=O)NCC1OCCCN1S(=O)(=O)c1ccccc1` (configuration not stated) as the compound, how does the Potency read?
Answer: inconclusive: 3.16 µM [inhibitor, full curve, poor fit]

Question: With `Cc1ccc(S(=O)(=O)N2CCN(c3ccnc4cc(Cl)ccc34)CC2)cc1C` as the compound, how does the Potency read?
Answer: inconclusive: 12.6 µM [inhibitor, single point]

Question: With `Cc1nn(-c2ccccc2)c(C)c1/C=N/NC(=O)c1cc(-c2ccc(Br)s2)[nH]n1` as the compound, how does the Potency read?
Answer: inconclusive: 35.5 µM [inhibitor, single point]

Question: Which Potency does the source give for `COc1ccc(-c2cc(-c3cccs3)c(C#N)c(SCC(=O)NCc3ccco3)n2)cc1` here?
Answer: inconclusive: 35.5 µM [activator, single point]

Question: Which Potency does the source give for `Cc1[nH]c2ccccc2c1CN1CCc2ccccc2C1` here?
Answer: inconclusive: 35.5 µM [inhibitor, single point]

Question: With `Cc1ccc2c(c1)c1ncn(Cc3ccc(F)cc3)c(=O)c1n2C` as the compound, how does the activity change, negative = inhibition read?
Answer: inactive: -13.6% [at 9.22 µM]

Question: Which Potency does the source give for `CC(=O)c1ccc(N2CCN(C(=O)Nc3ccc(F)cc3F)CC2)cc1` here?
Answer: inactive

Question: With `CCOC(=O)C1CCN(C(c2cccnc2)c2c(NC(=O)c3ccco3)sc(C)c2C)CC1` (configuration not stated) as the compound, how does the Potency read?
Answer: active: 7.94 µM

Question: For `CCc1ccc2c(c1)C1(C(=O)N2)N2CCCC2C(C(=O)c2ccc3ccccc3c2)C12C(=O)Nc1ccccc12` (configuration not stated), which Potency is on record?
Answer: inconclusive: 12.6 µM [inhibitor, partial curve]

Question: Which Potency does the source give for `Cc1cc(=O)n(C)c(=O)n1CCCCCCOc1cccc([N+](=O)[O-])c1` here?
Answer: inactive

Question: With `O=C(NC1C/C(=N/O)c2cc3c(cc21)OCO3)C(F)(F)F` (configuration not stated) as the compound, how does the Potency read?
Answer: inconclusive: 3.55 µM [inhibitor, single point]

Reference: PubChem BioAssay AID1688 (National Center for Advancing Translational Sciences (NCATS), 2009)
